According to article PMC5796268, “Affinity Purification and Comparative Biosensor Analysis of Citrulline-Peptide-Specific Antibodies in Rheumatoid Arthritis” (International Journal of Molecular Sciences, 2018):

Key:
[1] = tested on: serum IgG from RA patients; test: SPR, RA serum IgG on biotinylated peptides on neutravidin-coated NLC chip; assay type: binding, human
[2] = tested on: autoantibodies (ACPA) in RA serum samples; details: in house Cit-peptide ELISA, RA sera; cited from earlier work
[3] = tested on: autoantibodies (ACPA) in RA serum samples; test: ELISA screening of RA and healthy sera with Cit-/Arg-peptides; assay type: binding, human
[4] = tested on: serum antibodies from RA patients; test: SPR, RA serum antibodies on Cit-peptides covalently immobilized on GLH chip; assay type: binding, human; details: chip not stated (abstract)

Substance | proportion of selected RA sera bound to the biotinylated peptide [1] | sensitivity values for previously tested Cit-peptides [2] | other results
Ac-AXGLTGXPGDA-NH2 [Collagen II (359–369)] | 31% | 44% | 
Ac-KIHAXEIFDSXGNPTVE-NH2 [α-enolase (5–21)] |  |  | sensitivity of autoantibody detection in RA serum samples ([3]; OD index Cit-/Arg-peptide, RA n = 177, healthy n = 104, peptides coated directly): 27%
Ac-SAVRAXSSVPGVRK-NH2 [Vimentin (65–77)] |  | 41% | 
Ac-SHQESTXGXSXGRSGRSGSK-NH2 [Filaggrin (306–326)] |  | 62% | 
H-Ttds-AXAXGSGSGXGXG-NH2 [multi-epitope, novel peptide consisting of two-two copies of Ala-Cit and Cit-Gly motifs separated with a neutral spacer, SGSG] | 53% |  | healthy samples recognizing the peptide in SPR [4]: none of the healthy samples; sensitivity of ACPA identification in RA serum samples ([3]; biotinylated Cit-/Arg-multi-epitope peptide coat, RA n = 210, healthy n = 90): 66%; ROC curve area under the curve (AUC) ([3]; multi-epitope peptide, RA n = 210, healthy n = 90): 0.7843
H-XPAPPPISGGGYXAX-NH2 [Fibrin β (60–74)] | 60% | 56% | 
